Where a name gives a salt, the structure may show the parent alone. This is one part of the list. Repeats are few or missing, and single values can be far off.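 Labelled rat cortical synaptosomes were engulfed by primary human fetal astrocytes. Engulfment equaled a red/green ratio, corrected for calcein live-cell signal and normalized to the plate median. Compounds were toxic when calcein dropped over 30%, and reduced phagocytosis when below 70% of the median above 5 µM.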
Tests used:
Human fetal astrocytes [1] = assay: loss of total cells relative to no-compound high-control median (toxicity); higher = more toxic (fewer cells); conditions: 24 h
Human fetal astrocytes [2] = assay: synaptosome phagocytosis (pHrodo/calcein intensity ratio) relative to plate median of data wells; higher = more phagocytosis; conditions: 24 h

| SMILES | loss of total cells (Human fetal astrocytes [1]; 1.39 µM) | loss of total cells (Human fetal astrocytes [1]; 2.78 µM) | loss of total cells (Human fetal astrocytes [1]; 5.56 µM) | loss of total cells (Human fetal astrocytes [1]; 11.11 µM) | loss of total cells (Human fetal astrocytes [1]; 22.22 µM) | synaptosome phagocytosis (Human fetal astrocytes [2]; 1.39 µM) | synaptosome phagocytosis (Human fetal astrocytes [2]; 2.78 µM) | synaptosome phagocytosis (Human fetal astrocytes [2]; 5.56 µM) | synaptosome phagocytosis (Human fetal astrocytes [2]; 11.11 µM) | synaptosome phagocytosis (Human fetal astrocytes [2]; 22.22 µM) |
| --- | --- | --- | --- | --- | --- | --- | --- | --- | --- | --- |
| C=C[C@H]1CN2CC[C@H]1C[C@@H]2[C@@H](O)c1ccnc2ccc(OC)cc12 [Quinidine sulfate] | -9% | -9.3% | -3.9% | -14.9% | -28.8% | 67.6% | 102% | 89.2% | 90.7% | 97.1% |
| O=c1c(O)c(-c2ccc(O)c(O)c2)oc2cc(O)cc(O)c12 [Quercetin dihydrate] | -23.3% | -11.7% | -4.5% | -9.6% | -9.1% | 93.3% | 105% | 83.7% | 89.3% | 71.2% |
| CCCn1c(=O)[nH]c(=O)c2[nH]cnc21 [3-n-Propylxanthine] | -6.2% | -4.1% | -0.5% | 2.9% | 2.8% | 111% | 126% | 109% | 121% | 124% |
| S=C(S)OC1CC2CC1C1CCCC21 [D-609 potassium] | -26.4% | -25.4% | -7.9% | 1.1% | -18.9% | 99.4% | 108% | 116% | 103% | 93.3% |
| Cn1cc(C2=C(c3ccc(Cl)cc3Cl)C(=O)NC2=O)c2ccccc21 | -38.4% | -3.2% | 4.2% | 13.3% | 2.8% | 105% | 105% | 118% | 105% | 123% |
| Cc1nc(N=Nc2ccc(S(=O)(=O)O)cc2S(=O)(=O)O)c(COP(=O)(O)O)c(C=O)c1O | -7.1% | -11.1% | 1.1% | -4.2% | -32.1% | 84.1% | 92.7% | 71% | 76.1% | 121% |
| CC1=C(C(=O)O)N2C(=O)[C@@H](NC(=O)[C@H](N)C3=CCC=CC3)[C@H]2SC1 [Cephradine] | -16.1% | -9.9% | -10.6% | 7.6% | -7.9% | 72.8% | 107% | 115% | 109% | 100% |
| CN1[C@@H](CC(=O)c2ccccc2)CCC[C@H]1C[C@H](O)c1ccccc1 [alpha-Lobeline hydrochloride] | -5.2% | 3.2% | -9.9% | 21% | 20.6% | 78.5% | 92% | 88.5% | 90.2% | 84.8% |
| O=C(O)c1cc([N+](=O)[O-])ccc1NCCCc1ccccc1 [5-Nitro-2-(3-phenylpropylamino)benzoic acid] | -23.2% | -14.9% | 1.4% | -2.9% | 11.2% | 94.1% | 93.3% | 110% | 95.3% | 132% |
| CNCCNS(=O)(=O)c1cccc2cnccc12 [H-8 dihydrochloride] | -2.4% | 13.1% | 6.1% | 14.3% | 25.2% | 129% | 147% | 114% | 115% | 118% |
| CCn1nc(C(=O)O)c(=O)c2cc3c(cc21)OCO3 [Cinoxacin] | -17.6% | -16.2% | -5.1% | 1.3% | 4.1% | 87.9% | 88.1% | 109% | 88.4% | 73.3% |
| CNC(=O)c1cc2c(cn1)[nH]c1ccccc12 [N-Methyl-beta-carboline-3-carboxamide] | -24.7% | -6.8% | -15.6% | 2.2% | -10.4% | 104% | 118% | 106% | 109% | 105% |
| Nc1ncnc2c1ncn2C1CCCC1 [9-cyclopentyladenine] | -8.8% | -10.8% | -15.2% | -11.2% | 8.6% | 128% | 100% | 112% | 128% | 117% |
| CCC(=O)c1ccc2c(c1)N(CCCN(C)C)c1ccccc1S2 [Propionylpromazine hydrochloride] | -7.1% | -32.6% | -3.4% | -2.7% | 6.6% | 99.9% | 70.2% | 116% | 74% | 80.4% |
| CC(=Cc1ccc(C(=O)O)cc1)c1ccc2c(c1)C(C)(C)CCC2(C)C | -19.6% | -26.6% | -13.5% | -18.8% | -45.3% | 130% | 114% | 109% | 114% | 125% |
| N[C@@H](COP(=O)(O)O)C(=O)O [O-Phospho-L-serine] | -20.4% | -8.6% | -9.9% | -9.5% | 4.7% | 114% | 133% | 121% | 129% | 127% |
| CCCCC1(C2CCCC2)Cc2cc(OCC(=O)O)c(Cl)c(Cl)c2C1=O (stereo in doubt) [R(+)-Butylindazone] | -2.1% | -7.7% | -7.4% | -18.4% | 1.6% | 86.7% | 98.8% | 118% | 108% | 115% |

In the list so far, these contain four or more nitrogen atoms.

| SMILES | loss of total cells (Human fetal astrocytes [1]; 1.39 µM) | loss of total cells (Human fetal astrocytes [1]; 2.78 µM) | loss of total cells (Human fetal astrocytes [1]; 5.56 µM) | loss of total cells (Human fetal astrocytes [1]; 11.11 µM) | loss of total cells (Human fetal astrocytes [1]; 22.22 µM) | synaptosome phagocytosis (Human fetal astrocytes [2]; 1.39 µM) | synaptosome phagocytosis (Human fetal astrocytes [2]; 2.78 µM) | synaptosome phagocytosis (Human fetal astrocytes [2]; 5.56 µM) | synaptosome phagocytosis (Human fetal astrocytes [2]; 11.11 µM) | synaptosome phagocytosis (Human fetal astrocytes [2]; 22.22 µM) |
| --- | --- | --- | --- | --- | --- | --- | --- | --- | --- | --- |
| CCCn1c(=O)[nH]c(=O)c2[nH]cnc21 [3-n-Propylxanthine] | -6.2% | -4.1% | -0.5% | 2.9% | 2.8% | 111% | 126% | 109% | 121% | 124% |
| Nc1ncnc2c1ncn2C1CCCC1 [9-cyclopentyladenine] | -8.8% | -10.8% | -15.2% | -11.2% | 8.6% | 128% | 100% | 112% | 128% | 117% |

— the supplement of paper PMC10689618
